From patent publication US8198510
For at least one entry, the source does not settle the construct or the ends of the probe. Where cells or extracts were used, other partners may take part.

Target: AvrBs3 (Xanthomonas campestris pv. vesicatoria) (UniProt P14727)
Test: binding assay
Details: ChIP, enriched with Xcv wild-type, not with hrcV mutant; protein in cells

Q: Does “ATTTCTTCTATGTGCCTTGTGTCCAAAAGATGTTTCAGAAGTTCGCGTTGGGAAGTTGTCACCCTACGGAATAGCAGCATTAAGGCACATCAGAGATTTTTTGGGTGTTAAGTTTGTCATGAAACCTGATGCCTCCACAGGAACTGTCAATCTCATGTGTCTTGGCTCTGGTTTTCAGAATTTATCCAGAAAAGTATCATGATAAATTAATGGTGTCTGTGTTTGGTGGCTTAGAGTGACGGCTAGATCAACATCTTTGGGATGCCTTGTGGAGTGAAATCAAGCATACTTTATCATAGGCGAAATTTTTTGTTGTGGTTTGCTGCTTGTAATGAGAGAGTGATATAGGAAGCAAATGTGGAGATCACATTTGCTCATCTCCTTGTTGCGTTGAAACTTTTGGTGTCAAGAGTTCTAATTCACATGTATTTGAAGATTCCTCATATGCTGCTTTTGTTTCTAATTATTTTTTCTAGTAAGAAAACATTTGTTCCTGAGTTTCCAACTAGAAAAAAATATCAAGTAAAATAGAATTCAATCATTTCCCTTACCAACGCTTGGTACTGCCAACCGCAACAAAGAATTAATGCAAAACAACAGTCTATTAATATCAACCTAGACTAAACTCCTTAGTTTTACTTTGAAATGCGAATGATACATGACACATTAGATTGTACTTGCTTTTTACCACAGATACAACGATACATTTGTATATCTTTTCCCTTATAGCAAACTCTAATATATCATAGTCAAGCTAACGAAACTTATGCAAGGGAAATATGAAATTAGTATGCAAGTAAACTCAAAGAACTAATCATTGAACTGAAAGATCAATATATCAAAAAAAAAAAAAAAACAATAAAACCGTTTAACCGATAGATTAACCATTTCTGGTTCAGTTTATGGGTTAAACCACAATTTGCACACCCTGGTTAAACAATGAACACGTTTGCCTGACCAATTTTATTATATAAACCTAACCATCCTCACAACTTCAAGTTATCATCCCCTTTCTCTTTTCTCCTCTTGTTCTTGTCACCCGCTAAATCTATCAAAACACAAGTAGTCCTAGTTGCACATATATTTC (double strand) [Bs3 promoter]” bind?
A: binds
